Measured values as given in article PMC10932744.
Results are given in words; binding and its absence hold for the method and conditions named. Binding seen in cells or lysates may run through a third protein. Some entries that bind do so weakly or less than the wild type.

The chains behind the UniProt entries cited, without tags or fusion partners.
UniProt Q86U44: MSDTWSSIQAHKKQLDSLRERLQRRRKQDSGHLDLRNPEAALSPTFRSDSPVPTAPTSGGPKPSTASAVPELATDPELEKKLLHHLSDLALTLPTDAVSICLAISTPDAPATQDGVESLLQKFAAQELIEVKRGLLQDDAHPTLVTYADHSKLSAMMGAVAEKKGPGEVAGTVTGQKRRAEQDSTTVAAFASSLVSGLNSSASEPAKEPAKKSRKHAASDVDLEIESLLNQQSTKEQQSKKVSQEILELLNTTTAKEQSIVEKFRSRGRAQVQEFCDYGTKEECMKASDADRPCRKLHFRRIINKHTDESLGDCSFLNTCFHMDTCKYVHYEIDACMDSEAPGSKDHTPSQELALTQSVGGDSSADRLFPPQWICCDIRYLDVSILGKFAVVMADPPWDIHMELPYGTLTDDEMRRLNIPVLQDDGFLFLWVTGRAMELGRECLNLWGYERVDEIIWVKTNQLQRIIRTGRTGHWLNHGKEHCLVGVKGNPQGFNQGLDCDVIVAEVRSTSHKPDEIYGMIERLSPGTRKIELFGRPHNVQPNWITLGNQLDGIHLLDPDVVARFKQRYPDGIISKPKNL
UniProt Q14152: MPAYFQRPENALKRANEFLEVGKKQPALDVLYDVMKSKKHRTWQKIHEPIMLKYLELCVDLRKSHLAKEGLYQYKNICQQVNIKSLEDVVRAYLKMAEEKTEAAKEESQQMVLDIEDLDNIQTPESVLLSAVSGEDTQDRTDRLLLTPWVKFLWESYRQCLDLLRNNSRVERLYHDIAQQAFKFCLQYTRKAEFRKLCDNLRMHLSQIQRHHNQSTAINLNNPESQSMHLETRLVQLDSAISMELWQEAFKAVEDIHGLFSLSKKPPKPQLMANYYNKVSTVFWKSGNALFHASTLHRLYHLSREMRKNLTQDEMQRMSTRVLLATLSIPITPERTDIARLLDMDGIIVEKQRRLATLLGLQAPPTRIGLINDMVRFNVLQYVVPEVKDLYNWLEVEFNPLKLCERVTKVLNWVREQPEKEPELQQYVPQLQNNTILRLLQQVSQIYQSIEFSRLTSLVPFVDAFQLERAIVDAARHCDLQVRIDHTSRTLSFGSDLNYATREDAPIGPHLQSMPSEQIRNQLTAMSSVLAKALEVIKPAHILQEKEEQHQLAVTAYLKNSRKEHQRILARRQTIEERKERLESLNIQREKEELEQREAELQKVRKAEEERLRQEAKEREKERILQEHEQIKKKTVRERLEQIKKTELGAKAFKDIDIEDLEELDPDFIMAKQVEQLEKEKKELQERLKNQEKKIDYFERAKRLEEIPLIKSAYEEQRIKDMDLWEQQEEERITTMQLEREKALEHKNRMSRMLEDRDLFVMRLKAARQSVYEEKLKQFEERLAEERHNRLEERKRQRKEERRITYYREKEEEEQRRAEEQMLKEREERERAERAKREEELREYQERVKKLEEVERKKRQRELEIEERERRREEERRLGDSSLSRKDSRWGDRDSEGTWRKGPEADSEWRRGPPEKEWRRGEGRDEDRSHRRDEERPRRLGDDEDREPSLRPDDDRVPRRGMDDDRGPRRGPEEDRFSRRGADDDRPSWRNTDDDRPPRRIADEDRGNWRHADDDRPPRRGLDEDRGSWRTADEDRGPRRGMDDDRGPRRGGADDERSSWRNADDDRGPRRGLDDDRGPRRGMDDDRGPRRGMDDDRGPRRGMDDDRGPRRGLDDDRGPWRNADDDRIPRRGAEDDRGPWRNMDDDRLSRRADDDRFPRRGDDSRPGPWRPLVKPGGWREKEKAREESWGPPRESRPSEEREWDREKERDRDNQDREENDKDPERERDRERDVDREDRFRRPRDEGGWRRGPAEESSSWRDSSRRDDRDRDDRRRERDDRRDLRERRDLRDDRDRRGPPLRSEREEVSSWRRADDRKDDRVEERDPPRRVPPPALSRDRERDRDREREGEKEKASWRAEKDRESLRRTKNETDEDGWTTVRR

Columns and labels:
[1] = biological target: methyltransferase-like 3 (METTL3) (human (endogenous in hUCMSCs)) (UniProt Q86U44); assay: co-IP; hUCMSC lysate (RIPA buffer); magnetic beads precoated with anti-EIF3A or anti-METTL3 antibody; eluates blotted with anti-NOP2 (and anti-GAPDH); cells with or without METTL3 adenovirus, osteogenic induction for 7 days
[2] = biological target: eukaryotic translation initiation factor 3 subunit A (EIF3A) (human (endogenous in hUCMSCs)) (UniProt Q14152); assay: as above

- binding [1]: binds
- binding [2]: binds
B1: nucleolar protein 2 (NOP2) (protein, UniProt P46087 1-812)
chain: MGRKLDPTKEKRGPGRKARKQKGAETELVRFLPAVSDENSKRLSSRARKRAAKRRLGSVEAPKTNKSPEAKPLPGKLPKGISAGAVQTAGKKGPQSLFNAPRGKKRPAPGSDEEEEEEDSEEDGMVNHGDLWGSEDDADTVDDYGADSNSEDEEEGEALLPIERAARKQKAREAAAGIQWSEEETEDEEEEKEVTPESGPPKVEEADGGLQINVDEEPFVLPPAGEMEQDAQAPDLQRVHKRIQDIVGILRDFGAQREEGRSRSEYLNRLKKDLAIYYSYGDFLLGKLMDLFPLSELVEFLEANEVPRPVTLRTNTLKTRRRDLAQALINRGVNLDPLGKWSKTGLVVYDSSVPIGATPEYLAGHYMLQGASSMLPVMALAPQEHERILDMCCAPGGKTSYMAQLMKNTGVILANDANAERLKSVVGNLHRLGVTNTIISHYDGRQFPKVVGGFDRVLLDAPCSGTGVISKDPAVKTNKDEKDILRCAHLQKELLLSAIDSVNATSKTGGYLVYCTCSITVEENEWVVDYALKKRNVRLVPTGLDFGQEGFTRFRERRFHPSLRSTRRFYPHTHNMDGFFIAKFKKFSNSIPQSQTGNSETATPTNVDLPQVIPKSENSSQPAKKAKGAAKTKQQLQKQQHPKKASFQKLNGISKGADSELSTVPSVTKTQASSSFQDSSQPAGKAEGIREPKVTGKLKQRSPKLQSSKKVAFLRQNAPPKGTDTQTPAVLSPSKTQATLKPKDHHQPLGRAKGVEKQQLPEQPFEKAAFQKQNDTPKGPQPPTVSPIRSSRPPPAKRKKSQSRGNSQLLLS
